PubChem BioAssay AID743456 – Peter MacCallum Cancer Centre | 2014
The whole screen tested 878 reagents; this is a part drawn at random. 27 of all reagents (3.1%) count as active. 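27 mimics are marked active, unlike an earlier stated count of 24; the viability threshold is described inconsistently.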 Entries without a mark were called inactive. Not all columns of the deposit are shown. No sequences are given here. Not stated in the record: the amount of reagent.

Aim: 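Mimic library tested for viability and apoptosis changes under vorinostat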 (primary screen)
System: human HCT116-VR colon cancer cells, a vorinostat-resistant HCT116 line
Reagent: miRNA mimic
Duration: about 3 days from transfection to readout; drug present for the last 24 h
Treatment: vorinostat at 2.5 µM final for 24 h
Measured: 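Cell viability from CellTiter-Fluor signal and caspase activity from luminescence after 24 h vorinostat at 2.5 µM, given as robust z-scores and as ratios to mock-transfected wells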
Reading the numbers: viability robust z-score: higher = more viable cells; caspase robust z-score: higher = more caspase activity, more apoptosis
Call rule: 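a mimic counts as active if it lands in a lowered-viability class or a caspase-activation class; wells with too few cells without drug are left out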

hsa-miR-221* showed viability robust z-score -1.81; caspase robust z-score 0.8; viability hit class no change; caspase hit class no change.
hsa-miR-1255a showed viability robust z-score 0.6; caspase robust z-score 4.89; viability hit class no change; caspase hit class no change.
hsa-miR-519d scored viability robust z-score 1.33; caspase robust z-score 0.41; viability hit class no change; caspase hit class no change.
With hsa-miR-598 the deposit lists viability robust z-score 1.34; caspase robust z-score -0.24; viability hit class no change; caspase hit class no change.
hsa-miR-647 gave viability robust z-score -0.4; caspase robust z-score -0.23; viability hit class no change; caspase hit class no change.

Records listed so far whose target name starts with H or h (5):
hsa-miR-221*: viability robust z-score = -1.81; caspase robust z-score = 0.8; viability hit class = no change; caspase hit class = no change
hsa-miR-1255a: viability robust z-score = 0.6; caspase robust z-score = 4.89; viability hit class = no change; caspase hit class = no change
hsa-miR-519d: viability robust z-score = 1.33; caspase robust z-score = 0.41; viability hit class = no change; caspase hit class = no change
hsa-miR-598: viability robust z-score = 1.34; caspase robust z-score = -0.24; viability hit class = no change; caspase hit class = no change
hsa-miR-647: viability robust z-score = -0.4; caspase robust z-score = -0.23; viability hit class = no change; caspase hit class = no change

Additional results:
With hsa-miR-654-3p, the values are viability robust z-score -1.23; caspase robust z-score 1.06; viability hit class no change; caspase hit class no change.
hsa-miR-548e gave viability robust z-score 1.48; caspase robust z-score -0.1; viability hit class no change; caspase hit class no change.
For hsa-miR-365*, the entry reads viability robust z-score 0.82; caspase robust z-score 1.35; viability hit class no change; caspase hit class no change.
With hsa-miR-1260 the deposit lists viability robust z-score -0.59; caspase robust z-score -1.1; viability hit class no change; caspase hit class no change.
For hsa-miR-507, the entry reads viability robust z-score 0.02; caspase robust z-score -0.43; viability hit class no change; caspase hit class no change.
hsa-miR-944 scored viability robust z-score -0.08; caspase robust z-score -0.77; viability hit class no change; caspase hit class no change.
hsa-miR-1279 gave viability robust z-score 0.55; caspase robust z-score -0.54; viability hit class no change; caspase hit class no change.
